# Experimental data taken from the supplement of paper PMC11438910.
# This is one part of the list. The signal is at background level for most entries.
# B1: 4-127.5 (protein)
# chain 1: QVQLQESGPGLVKPSETLSLTCAVSGYSISSGYGWSWIRQPPGKGLEWIGYIGGSDSSTNYNPSLKSRVTISKDTSKNQLSLKLRSVTAADTAVYYCGSRGAVAGLGGLDSWGQGLLVTVSS
# chain 2: QSVLTQPPSVSGAPGQRVTISCTGSSSNIGAGYGVQWYQQLPGTAPKLLIYENNKRPSGVFDRFSGSQSGTSGSLTITGLQSEDEADYYCQSYDSSLKAVLFGGGTRLTVL
# B2: 4-127.4 (protein)
# chain 1: QVQLQESGPGLVKPSETLSLTCGVSGYSISSGHGWSWIRQPPGKGLEWIGYVGGSSGNTNYNPSLKSRVTISKDTSKNQISLKLSSVTAADTAVYYCARRGISGTFGLVDYWGQGVLVTVSS
# chain 2: QSVLTQPPSVSGAPGQRVTISCTGSSSNIGGYYVQWYQQLPGSAPKLLIYDNDQRPSGVSDRISGSRSGTSASLTITGLQSEDEADYYCQSFDSFLRGVLFGGGTRLTVL
# Tests used:
# Experiment in all cases: fluorescence intensity of antibody binding to polysaccharide-coupled beads; higher = stronger binding
# [1] = target: pneumococcal polysaccharide Pn47A
# [2] = target: pneumococcal polysaccharide Pn47F
# [3] = target: pneumococcal polysaccharide Pn48
# [4] = target: pneumococcal polysaccharide Pn5
# [5] = target: pneumococcal polysaccharide Pn6A
# [6] = target: pneumococcal polysaccharide Pn6B
# [7] = target: pneumococcal polysaccharide Pn6C
# [8] = target: pneumococcal polysaccharide Pn6D
# [9] = target: pneumococcal polysaccharide Pn7A
# [10] = target: pneumococcal polysaccharide Pn7B
# [11] = target: pneumococcal polysaccharide Pn7C
# [12] = target: pneumococcal polysaccharide Pn7F
# [13] = target: pneumococcal polysaccharide Pn8
# [14] = target: pneumococcal polysaccharide Pn9A
# [15] = target: pneumococcal polysaccharide Pn9L
# [16] = target: pneumococcal polysaccharide Pn9N
# [17] = target: pneumococcal polysaccharide Pn9V
# [18] = target: pneumococcal polysaccharide C-Poly-1
# [19] = target: pneumococcal polysaccharide C-Poly-2
# [20] = target: pneumococcal polysaccharide Pn1
# [21] = target: pneumococcal polysaccharide Pn10A
# [22] = antibody concentration 2337.65 ng/mL
# [23] = antibody concentration 12500 ng/mL
# [24] = antibody concentration 0.1 ng/mL
# [25] = antibody concentration 0.534724 ng/mL
# [26] = antibody concentration 2.8593 ng/mL
# [27] = antibody concentration 15.2894 ng/mL
# [28] = antibody concentration 81.7561 ng/mL
# [29] = antibody concentration 437.17 ng/mL
binder,measurement,setting,value
B1,fluorescence intensity,[1]; [22],17.5 MFI
same,fluorescence intensity,[1]; [23],25 MFI
same,fluorescence intensity,[2]; [24],12.5 MFI
same,fluorescence intensity,[2]; [25],12.5 MFI
same,fluorescence intensity,[2]; [26],13 MFI
same,fluorescence intensity,[2]; [27],12.5 MFI
same,fluorescence intensity,[2]; [28],13.5 MFI
same,fluorescence intensity,[2]; [29],12.5 MFI
same,fluorescence intensity,[2]; [22],15 MFI
same,fluorescence intensity,[2]; [23],43 MFI
same,fluorescence intensity,[3]; [24],22.5 MFI
same,fluorescence intensity,[3]; [25],21.5 MFI
same,fluorescence intensity,[3]; [26],19 MFI
same,fluorescence intensity,[3]; [27],20.5 MFI
same,fluorescence intensity,[3]; [28],23 MFI
same,fluorescence intensity,[3]; [29],24 MFI
same,fluorescence intensity,[3]; [22],29.5 MFI
same,fluorescence intensity,[3]; [23],35 MFI
same,fluorescence intensity,[4]; [24],10.5 MFI
same,fluorescence intensity,[4]; [25],10 MFI
same,fluorescence intensity,[4]; [26],9.5 MFI
same,fluorescence intensity,[4]; [27],9 MFI
same,fluorescence intensity,[4]; [28],9.5 MFI
same,fluorescence intensity,[4]; [29],10 MFI
same,fluorescence intensity,[4]; [22],13.5 MFI
same,fluorescence intensity,[4]; [23],70 MFI
same,fluorescence intensity,[5]; [24],20.2 MFI
same,fluorescence intensity,[5]; [25],21.5 MFI
same,fluorescence intensity,[5]; [26],21.5 MFI
same,fluorescence intensity,[5]; [27],22.5 MFI
same,fluorescence intensity,[5]; [28],22 MFI
same,fluorescence intensity,[5]; [29],23 MFI
same,fluorescence intensity,[5]; [22],29 MFI
same,fluorescence intensity,[5]; [23],28.2 MFI
same,fluorescence intensity,[6]; [24],20.8 MFI
same,fluorescence intensity,[6]; [25],18.5 MFI
same,fluorescence intensity,[6]; [26],20.5 MFI
same,fluorescence intensity,[6]; [27],20 MFI
same,fluorescence intensity,[6]; [28],21.5 MFI
same,fluorescence intensity,[6]; [29],21 MFI
same,fluorescence intensity,[6]; [22],25 MFI
same,fluorescence intensity,[6]; [23],28 MFI
same,fluorescence intensity,[7]; [24],18.8 MFI
same,fluorescence intensity,[7]; [25],22 MFI
same,fluorescence intensity,[7]; [26],29.8 MFI
same,fluorescence intensity,[7]; [27],36.5 MFI
same,fluorescence intensity,[7]; [28],46.2 MFI
same,fluorescence intensity,[7]; [29],55 MFI
same,fluorescence intensity,[7]; [22],57.8 MFI
same,fluorescence intensity,[7]; [23],78.2 MFI
same,fluorescence intensity,[8]; [24],17.5 MFI
same,fluorescence intensity,[8]; [25],17 MFI
same,fluorescence intensity,[8]; [26],18 MFI
same,fluorescence intensity,[8]; [27],17.5 MFI
same,fluorescence intensity,[8]; [28],18.5 MFI
same,fluorescence intensity,[8]; [29],18.5 MFI
same,fluorescence intensity,[8]; [22],23 MFI
same,fluorescence intensity,[8]; [23],30.5 MFI
same,fluorescence intensity,[9]; [24],22 MFI
same,fluorescence intensity,[9]; [25],21 MFI
same,fluorescence intensity,[9]; [26],20.5 MFI
same,fluorescence intensity,[9]; [27],20.2 MFI
same,fluorescence intensity,[9]; [28],22.5 MFI
same,fluorescence intensity,[9]; [29],25 MFI
same,fluorescence intensity,[9]; [22],66.5 MFI
same,fluorescence intensity,[9]; [23],527 MFI
same,fluorescence intensity,[10]; [24],17 MFI
same,fluorescence intensity,[10]; [25],17.2 MFI
same,fluorescence intensity,[10]; [26],16.8 MFI
same,fluorescence intensity,[10]; [27],16.2 MFI
same,fluorescence intensity,[10]; [28],15.8 MFI
same,fluorescence intensity,[10]; [29],18 MFI
same,fluorescence intensity,[10]; [22],25 MFI
same,fluorescence intensity,[10]; [23],78.5 MFI
same,fluorescence intensity,[11]; [24],18.5 MFI
same,fluorescence intensity,[11]; [25],18 MFI
same,fluorescence intensity,[11]; [26],17.5 MFI
same,fluorescence intensity,[11]; [27],18.5 MFI
same,fluorescence intensity,[11]; [28],15.5 MFI
same,fluorescence intensity,[11]; [29],19 MFI
same,fluorescence intensity,[11]; [22],23.2 MFI
same,fluorescence intensity,[11]; [23],58.5 MFI
same,fluorescence intensity,[12]; [24],15 MFI
same,fluorescence intensity,[12]; [25],16 MFI
same,fluorescence intensity,[12]; [26],15.5 MFI
same,fluorescence intensity,[12]; [27],16 MFI
same,fluorescence intensity,[12]; [28],15.5 MFI
same,fluorescence intensity,[12]; [29],17.5 MFI
same,fluorescence intensity,[12]; [22],24 MFI
same,fluorescence intensity,[12]; [23],199 MFI
same,fluorescence intensity,[13]; [24],21 MFI
same,fluorescence intensity,[13]; [25],23 MFI
same,fluorescence intensity,[13]; [26],21 MFI
same,fluorescence intensity,[13]; [27],22.5 MFI
same,fluorescence intensity,[13]; [28],22.8 MFI
same,fluorescence intensity,[13]; [29],25 MFI
same,fluorescence intensity,[13]; [22],29.8 MFI
same,fluorescence intensity,[13]; [23],36.2 MFI
same,fluorescence intensity,[14]; [24],19.2 MFI
same,fluorescence intensity,[14]; [25],19.5 MFI
same,fluorescence intensity,[14]; [26],20.2 MFI
same,fluorescence intensity,[14]; [27],19.2 MFI
same,fluorescence intensity,[14]; [28],19.5 MFI
same,fluorescence intensity,[14]; [29],19.5 MFI
same,fluorescence intensity,[14]; [22],29 MFI
same,fluorescence intensity,[14]; [23],82.2 MFI
same,fluorescence intensity,[15]; [24],18 MFI
same,fluorescence intensity,[15]; [25],18 MFI
same,fluorescence intensity,[15]; [26],18 MFI
same,fluorescence intensity,[15]; [27],18.2 MFI
same,fluorescence intensity,[15]; [28],17.2 MFI
same,fluorescence intensity,[15]; [29],18 MFI
same,fluorescence intensity,[15]; [22],22.2 MFI
same,fluorescence intensity,[15]; [23],49.8 MFI
same,fluorescence intensity,[16]; [24],17 MFI
same,fluorescence intensity,[16]; [25],16 MFI
same,fluorescence intensity,[16]; [26],16 MFI
same,fluorescence intensity,[16]; [27],17.5 MFI
same,fluorescence intensity,[16]; [28],16.5 MFI
same,fluorescence intensity,[16]; [29],18.5 MFI
same,fluorescence intensity,[16]; [22],22.5 MFI
same,fluorescence intensity,[16]; [23],60 MFI
same,fluorescence intensity,[17]; [24],15.8 MFI
same,fluorescence intensity,[17]; [25],15 MFI
same,fluorescence intensity,[17]; [26],15.5 MFI
same,fluorescence intensity,[17]; [27],15.5 MFI
same,fluorescence intensity,[17]; [28],16.2 MFI
same,fluorescence intensity,[17]; [29],16 MFI
same,fluorescence intensity,[17]; [22],15.5 MFI
same,fluorescence intensity,[17]; [23],20.5 MFI
B2,fluorescence intensity,[18]; [24],25 MFI
same,fluorescence intensity,[18]; [25],27 MFI
same,fluorescence intensity,[18]; [26],29 MFI
same,fluorescence intensity,[18]; [27],27.5 MFI
same,fluorescence intensity,[18]; [28],28.5 MFI
same,fluorescence intensity,[18]; [29],30 MFI
same,fluorescence intensity,[18]; [22],35.5 MFI
same,fluorescence intensity,[18]; [23],82.5 MFI
same,fluorescence intensity,[19]; [24],19.5 MFI
same,fluorescence intensity,[19]; [25],20.5 MFI
same,fluorescence intensity,[19]; [26],20.5 MFI
same,fluorescence intensity,[19]; [27],19.8 MFI
same,fluorescence intensity,[19]; [28],21.5 MFI
same,fluorescence intensity,[19]; [29],23.5 MFI
same,fluorescence intensity,[19]; [22],29 MFI
same,fluorescence intensity,[19]; [23],68.8 MFI
same,fluorescence intensity,[20]; [24],13.5 MFI
same,fluorescence intensity,[20]; [25],13 MFI
same,fluorescence intensity,[20]; [26],13 MFI
same,fluorescence intensity,[20]; [27],14 MFI
same,fluorescence intensity,[20]; [28],14 MFI
same,fluorescence intensity,[20]; [29],16 MFI
same,fluorescence intensity,[20]; [22],17.5 MFI
same,fluorescence intensity,[20]; [23],33 MFI
same,fluorescence intensity,[21]; [24],25.5 MFI
same,fluorescence intensity,[21]; [25],26.5 MFI
same,fluorescence intensity,[21]; [26],26.8 MFI
same,fluorescence intensity,[21]; [27],27.5 MFI
same,fluorescence intensity,[21]; [28],27.8 MFI
same,fluorescence intensity,[21]; [29],28.5 MFI

# 2 records picked at random from those above:
binder,measurement,setting,value
B1,fluorescence intensity,[1]; [22],17.5 MFI
same,fluorescence intensity,[16]; [29],18.5 MFI

# Given tab-delimited: entries from further up.
binder	measurement	setting	value
B1	fluorescence intensity	[14]; [29]	19.5 MFI
same	fluorescence intensity	[14]; [22]	29 MFI
same	fluorescence intensity	[14]; [23]	82.2 MFI
same	fluorescence intensity	[15]; [24]	18 MFI
same	fluorescence intensity	[15]; [25]	18 MFI
